Primary screen of a compound library

Protein sequences, listed by entry. Tags and fused reporters are not part of them. Residues count along the entry.
UniProt I6X8D2, whole entry: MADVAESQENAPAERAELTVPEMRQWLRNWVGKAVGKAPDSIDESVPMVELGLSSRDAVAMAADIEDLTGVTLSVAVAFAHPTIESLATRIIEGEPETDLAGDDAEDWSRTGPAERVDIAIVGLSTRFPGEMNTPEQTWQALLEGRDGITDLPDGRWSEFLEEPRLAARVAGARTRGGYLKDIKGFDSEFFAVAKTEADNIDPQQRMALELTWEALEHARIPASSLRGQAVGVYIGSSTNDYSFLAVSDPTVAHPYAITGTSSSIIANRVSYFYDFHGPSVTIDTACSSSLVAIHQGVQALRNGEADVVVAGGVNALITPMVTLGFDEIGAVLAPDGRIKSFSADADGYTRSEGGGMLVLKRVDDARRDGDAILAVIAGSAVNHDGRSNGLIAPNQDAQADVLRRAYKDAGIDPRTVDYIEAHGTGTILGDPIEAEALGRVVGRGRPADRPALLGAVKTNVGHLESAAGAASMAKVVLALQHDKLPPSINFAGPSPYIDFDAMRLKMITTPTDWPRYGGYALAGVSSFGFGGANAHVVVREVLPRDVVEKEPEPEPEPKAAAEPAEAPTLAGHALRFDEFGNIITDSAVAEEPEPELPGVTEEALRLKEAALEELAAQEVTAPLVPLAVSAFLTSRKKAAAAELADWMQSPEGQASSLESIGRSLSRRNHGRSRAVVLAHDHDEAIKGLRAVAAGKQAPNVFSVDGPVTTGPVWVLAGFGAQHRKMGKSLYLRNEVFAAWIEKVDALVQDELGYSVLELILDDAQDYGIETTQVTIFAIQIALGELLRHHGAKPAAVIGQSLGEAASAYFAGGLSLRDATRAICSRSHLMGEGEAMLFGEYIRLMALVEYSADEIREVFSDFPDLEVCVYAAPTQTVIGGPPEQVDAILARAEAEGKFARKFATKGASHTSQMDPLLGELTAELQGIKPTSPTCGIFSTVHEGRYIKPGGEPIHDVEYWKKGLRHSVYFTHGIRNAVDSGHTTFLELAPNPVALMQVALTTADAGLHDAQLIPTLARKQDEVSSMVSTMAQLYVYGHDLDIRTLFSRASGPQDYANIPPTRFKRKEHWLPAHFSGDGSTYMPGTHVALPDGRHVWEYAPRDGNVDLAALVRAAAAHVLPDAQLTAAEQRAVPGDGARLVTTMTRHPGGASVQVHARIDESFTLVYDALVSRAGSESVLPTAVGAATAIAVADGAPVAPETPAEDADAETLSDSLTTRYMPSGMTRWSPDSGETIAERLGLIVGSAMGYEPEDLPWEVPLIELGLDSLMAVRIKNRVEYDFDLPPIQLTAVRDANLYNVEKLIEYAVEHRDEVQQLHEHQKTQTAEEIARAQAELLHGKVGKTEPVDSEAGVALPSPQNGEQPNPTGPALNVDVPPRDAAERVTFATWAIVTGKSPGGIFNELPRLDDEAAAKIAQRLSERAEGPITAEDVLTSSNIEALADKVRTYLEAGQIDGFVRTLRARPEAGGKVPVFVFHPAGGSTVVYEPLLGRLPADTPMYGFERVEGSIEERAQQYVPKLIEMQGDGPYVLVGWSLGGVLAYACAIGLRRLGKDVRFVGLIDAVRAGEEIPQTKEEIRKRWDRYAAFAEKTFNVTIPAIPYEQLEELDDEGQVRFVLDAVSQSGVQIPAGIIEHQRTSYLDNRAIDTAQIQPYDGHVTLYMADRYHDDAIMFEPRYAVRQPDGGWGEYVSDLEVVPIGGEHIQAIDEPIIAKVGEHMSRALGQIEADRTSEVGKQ
UniProt Q4DA54, 1-478: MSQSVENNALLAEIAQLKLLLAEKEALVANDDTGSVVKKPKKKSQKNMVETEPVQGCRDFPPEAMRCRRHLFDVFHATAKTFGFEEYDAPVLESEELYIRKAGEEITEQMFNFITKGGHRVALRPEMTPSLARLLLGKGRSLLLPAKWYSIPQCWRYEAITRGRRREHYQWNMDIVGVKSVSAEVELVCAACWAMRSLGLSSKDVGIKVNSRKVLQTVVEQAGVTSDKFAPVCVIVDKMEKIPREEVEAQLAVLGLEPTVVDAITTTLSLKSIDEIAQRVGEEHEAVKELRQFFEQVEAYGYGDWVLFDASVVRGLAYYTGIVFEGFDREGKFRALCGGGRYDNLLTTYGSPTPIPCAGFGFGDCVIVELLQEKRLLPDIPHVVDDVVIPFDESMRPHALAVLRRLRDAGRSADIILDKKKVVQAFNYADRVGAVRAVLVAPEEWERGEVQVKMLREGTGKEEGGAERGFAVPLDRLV
UniProt A4I591, 1-473: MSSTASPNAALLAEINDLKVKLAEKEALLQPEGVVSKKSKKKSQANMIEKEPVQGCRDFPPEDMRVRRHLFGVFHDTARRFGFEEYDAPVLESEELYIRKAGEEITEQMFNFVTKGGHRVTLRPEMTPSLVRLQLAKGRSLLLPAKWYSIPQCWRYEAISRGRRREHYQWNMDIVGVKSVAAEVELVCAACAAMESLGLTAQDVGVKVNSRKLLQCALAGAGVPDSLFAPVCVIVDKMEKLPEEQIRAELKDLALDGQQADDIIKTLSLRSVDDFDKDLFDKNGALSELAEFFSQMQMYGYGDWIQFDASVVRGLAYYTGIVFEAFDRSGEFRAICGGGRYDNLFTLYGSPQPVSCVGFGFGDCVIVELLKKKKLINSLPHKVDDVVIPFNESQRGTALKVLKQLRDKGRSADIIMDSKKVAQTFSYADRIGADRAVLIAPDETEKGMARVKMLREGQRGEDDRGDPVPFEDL

Source: ChEMBL document CHEMBL3988442, “University of Dundee, Small-Polar-MMV Screening Library” (2021).

Results are given as percent effect. How 0% and 100% were set is not recorded. Most values in the screen are low, and negative values occur. Compounds were drawn at random from those tested, without regard to their results. A dash means the value is not listed here; it may have been measured.

Pks13 thioesterase: 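Polyketide synthase Pks13, Mycobacterium tuberculosis (UniProt I6X8D2). Enzyme assay of the thioesterase domain of polyketide synthase 13; the read-out is not stated. Tested at 30 µM. The record gives no direction; the compounds picked for IC50 retests had high values, so higher reads as stronger inhibition. Size under these conditions: about 67,000 compounds, about 300 of them at 50% or above in at least one test.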
TcHisRS: 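Enzyme assay of histidyl-tRNA synthetase; the read-out is not stated. Target: Histidine-tRNA ligase, Trypanosoma cruzi CL Brener (UniProt Q4DA54). Tested at 30 µM. Higher reads as stronger inhibition (inferred: compounds with an IC50 in retests scored well above the rest). Size under these conditions: about 69,000 compounds, about 31 of them at 50% or above in at least one test.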
LiHisRS: 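Histidine-tRNA ligase, Leishmania infantum (UniProt A4I591). Enzyme assay of histidyl-tRNA synthetase; the read-out is not stated. Compounds at 30 µM. The record gives no direction; compounds that gave an IC50 in retests scored well above the rest, so higher reads as stronger inhibition. The assay is labelled LdHisRS but filed under L. infantum. Of about 69,000 compounds tested this way, about 410 (0.6%) reached 50% or more in at least one test.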

| # | structure | Pks13 thioesterase | TcHisRS | LiHisRS |
|---|---|---|---|---|
| 1 | `O=c1c2ccccc2nc2n1C(CSc1ccc(Br)cc1)CN2` (configuration not stated) | -18.99 | 10.42 | 47.92 |
| 2 | `Cc1cnc(-c2nc(O)c3c(n2)CN(C(=O)C2CCCC2)CC3)cn1` | -3.66 | 1.88 | 5.674 |
| 3 | `C=C(C)CN(Cc1cccc(O)c1)C1CCC(O)CC1` (configuration not stated) | -8.443 | 0.8475 | 16.98 |
| 4 | `CCCC(O)CN1CCC(=O)N(CC)Cc2cc3c(cc21)OCO3` (configuration not stated) | -18.12 | 6.742 | 16.33 |
| 5 | `Cc1c(CS(C)(=O)=O)cccc1NCCCC1CCCC1` | -30.01 | 5.419 | 11.69 |
| 6 | `CCn1c(C2CCCN(Cc3ccc(OC)c(C)c3C)C2)nn(C)c1=O` (configuration not stated) | -37.82 | -3.488 | 11.48 |
| 7 | `CN1CCN(c2cc(CNC(=O)c3cccnc3O)ccn2)CC1` | -15.08 | 7.059 | 18.35 |
| 8 | `NC1C=C(C(F)(F)F)NC=C1c1ccccc1` (configuration not stated) | 3.426 | 3.468 | 16.49 |
| 9 | `Cc1c(Cl)cccc1N1CC(c2nnc(N)s2)CC1=O` (configuration not stated) | 3.409 | 2.232 | 16.05 |
| 10 | `Cc1cc(C)n(CC(=O)Nc2cc(-c3ccncc3)[nH]n2)n1` | -5.833 | 11.11 | 14.71 |
| 11 | `COc1ccc(-c2nc(CCNCc3ccncc3)co2)cc1` | 1.977 | 16.16 | 24.47 |
| 12 | `O=C(NC1CCC1)[C@H]1C[C@@H]2[C@@H](C1)OCCN2CC1CC1` | - | 7.527 | 17.54 |
| 13 | `Cc1noc(OCc2ccc(C#N)cc2)n1` | -10.37 | 13.1 | 22.22 |
| 14 | `Cc1nnc(N2CC[C@H]3C[C@@H](C(=O)N4CCCC4)O[C@H]3C2)s1` | -48.14 | 1.961 | 6 |
| 15 | `COCCN1C[C@@H](C)[C@@]2(COCCN(C(=O)c3ccncc3)C2)C1` | -30.77 | 4.478 | 11.11 |
| 16 | `COCC(=O)NCc1cnc(C)nc1-c1cn(C)c2ccc(OC)cc12` | 21.53 | 6.513 | 8.571 |
| 17 | `O=C(CCc1ccccn1)N1CCN(C(=O)CC2CCCCC2)CC1` | -10.95 | 0.3774 | 18.67 |
| 18 | `COc1ccccc1C1SCC(=O)Nc2n[nH]cc21` (configuration not stated) | -55.75 | -1.087 | 14.29 |
| 19 | `CCn1cnnc1CNC(=O)c1ccc(Cl)cc1F` | -8.858 | 1.128 | 21.62 |
| 20 | `O=C(O)C1CCCN1c1nc(-c2ccc(Cl)cc2)cc(C(F)(F)F)n1` (configuration not stated) | 16.28 | -5.752 | 0.885 |
| 21 | `Cc1nc([C@H]2C[C@H]3CN(C(=O)c4ccoc4C)CC[C@@H]3O2)no1` | -18.97 | 1.98 | 15.07 |
| 22 | `Cc1nnc2n1CCN(CCOc1ccc(C(C)(C)C)cc1)C2` | -18.53 | 7.887 | 14.78 |
| 23 | `Cc1cc(=O)[nH]c(NCCNC(=O)CN2CCCCCC2)n1` | 15.88 | 5.419 | 9.211 |
| 24 | `Cc1ccc(NS(=O)(=O)c2c[nH]c3ncccc23)nc1` | -17.9 | 7.447 | 19.4 |
| 25 | `FC(F)Oc1ccc(CNCc2cc(Cl)c3c(c2)OCO3)cc1` | -23.18 | 8.021 | 4.712 |
| 26 | `Cc1cc(C)n(C2=NC(NCCC(C)C)c3c(sc4c3CCCC4)N2)n1` (configuration not stated) | -14.26 | -3.727 | 10 |
| 27 | `CNC(=O)c1nc(CC(=O)Nc2ccc3cc[nH]c3c2)no1` | -11.56 | -0.5181 | 7.865 |
| 28 | `NC(=O)N1CCCC(C(=O)NCc2ccccc2OC(F)(F)F)C1` (configuration not stated) | -18.43 | 0 | 21.88 |
| 29 | `CC(Cn1cncn1)NC(=O)c1cn(Cc2ccccc2F)nn1` (configuration not stated) | 10.67 | 1.316 | -7.5 |
| 30 | `O=S(=O)(NC1CCN(CC(F)(F)F)C1)c1cc(F)cc(F)c1` (configuration not stated) | -5.458 | 9.091 | 15.56 |
| 31 | `Cc1cc(F)cc(S(=O)(=O)NC(=O)CCc2cncc(F)c2)c1` | - | 3.333 | 15.32 |
| 32 | `CC(O)CN1CCC(CNCc2ccc(C#N)cc2)CC1` (configuration not stated) | -37.4 | -1.911 | 21.13 |
| 33 | `CN(C)c1ccccc1C(=O)N1CCCC(c2cccc(C(=O)O)c2)C1` (configuration not stated) | -22.75 | 9.453 | 22.89 |
| 34 | `Cc1csc(CNC(=O)N(C)Cc2ccncc2)n1` | -9.243 | 6.706 | 16.51 |
| 35 | `CN(C)Cc1nnc(C2CCCN(c3cc(C(F)(F)F)ccn3)C2)n1C` (configuration not stated) | -1.741 | -9.662 | 12.5 |
| 36 | `NC(=O)c1csc(C(=O)N2CCCCC2Cn2cccn2)c1` (configuration not stated) | -15.16 | 0.3831 | 30.77 |
| 37 | `O=C(CCc1cccc(C2CCNCC2)n1)N1CCCCC1` | 0.1921 | 6.923 | 43.66 |
| 38 | `CN(Cc1cn2c(n1)CN(CC1CC1)CC2)Cc1ccco1` | -12.2 | 7.104 | 8.029 |
| 39 | `c1nc(N2CCCC2)cnc1C1CCNCC1` | 9.83 | 0.565 | 6.993 |
| 40 | `CC1CCCN(C(=O)c2ccn(COc3ccccc3)n2)C1` (configuration not stated) | -14.38 | -2.609 | 8.621 |
| 41 | `Cc1nc(C)n(CC2CCCN2CCCOc2ccc(C#N)cc2)n1` (configuration not stated) | -6.424 | 7.429 | 3.39 |
| 42 | `Cc1n[nH]cc1C(=O)N1CCCC(c2cccc(-n3ccnc3)n2)C1` (configuration not stated) | -8.312 | 7.692 | 15.94 |
| 43 | `Cc1nn(C)c(C)c1S(=O)(=O)NCC1CCN(c2ccccn2)CC1` | -2.464 | -1.554 | -2.151 |
| 44 | `COc1ccc(Cn2nnnc2SCC2CCCN(C)C2)cc1` (configuration not stated) | 1.723 | 10.31 | 12.09 |
| 45 | `Cc1ccc(C(C)NC(=O)CNCCn2cccn2)cc1C` (configuration not stated) | -36.05 | 4.598 | 8.696 |
| 46 | `COc1ccc(C)cc1CN1CCN(Cc2nccn2C)C(C)C1` (configuration not stated) | -4.544 | 15.66 | 4 |
| 47 | `CCC(CC)NC(=O)Cn1cc(-c2ccccc2)cn1` | -10.1 | 2.006 | 7.018 |
| 48 | `CS(=O)(=O)NCc1cc2n(n1)CCCN(Cc1nc3ccccc3[nH]1)C2` | -6.664 | 7.438 | 17.14 |
| 49 | `O=C(NCCC1COc2ccccc2O1)c1ccc(N2CC(O)C2)nc1` (configuration not stated) | -10.46 | 5.6 | 13.11 |
| 50 | `CC(C(=O)N(C)C)S(=O)(=O)c1cc2c(cc1Cl)OCCO2` (configuration not stated) | - | 13.79 | 14.91 |
| 51 | `COc1ccc(Cn2cc(C(=O)N(C)Cc3cnccn3)nn2)cc1` | -14.75 | 2.062 | 16.48 |
| 52 | `Cc1cc(NC2CCN(CC3CCCO3)CC2)n2nc(C)c(C)c2n1` (configuration not stated) | 3.522 | 4.819 | 8 |
| 53 | `Cn1cnc2c1C(COCC1CC1)CN(Cc1ccc3c(c1)OCO3)C2` (configuration not stated) | -2.384 | 8.021 | -1.923 |
| 54 | `Cn1cc(NC(=O)CNC(=O)N2CCN(c3cccc(Cl)c3)CC2)cn1` | -55.82 | 4.124 | 16.48 |
| 55 | `O=c1ccc(-c2cccs2)nn1CN1CCc2ccccc2C1` | -20.17 | 1.754 | 13.16 |
| 56 | `Cc1noc(C(C)C)c1C(=O)N1CCC(n2cccn2)CC1` | -2.565 | 8.287 | 0 |
| 57 | `CCC(CC)CS(=O)(=O)NC(=O)C1CCC1` | -23.55 | 7.006 | 1.408 |
| 58 | `Cc1nnc2n1CCN(C(=O)C(C)Oc1ccc(C#N)cc1)C2` (configuration not stated) | -10.49 | 0.8696 | 11.67 |
| 59 | `CCOC(=O)c1n[nH]cc1-c1cncn1CCCn1nc(C)cc1C` | -6.624 | 10.65 | 13.1 |
| 60 | `CCc1cc(N[C@H]2CC[C@@H](N)CC2)n2nc(C)c(C)c2n1` | -1.491 | 1.339 | 11.11 |
| 61 | `COc1ccc(CC(=O)N2CCN(Cc3ccco3)C[C@@H]2C)cc1` | 12.49 | 8.812 | 14.39 |
| 62 | `CCOCCS(=O)(=O)N(CC)Cc1ccc(Cl)s1` | -10.01 | 0.8403 | 1.754 |
| 63 | `NC(=O)CN1CCCC(c2nccnc2Oc2cccc(F)c2)C1` (configuration not stated) | -2.581 | 5.993 | 4 |
| 64 | `N#Cc1cccc(C(=O)N2CCC3(CCC(=O)N(C4CC4)C3)CC2)c1` | 3.814 | -2.762 | 14.58 |
| 65 | `CCN(Cc1cnc(C)cn1)C1CCN(c2ccccc2)C1=O` (configuration not stated) | -32.61 | 7.182 | 3.109 |
| 66 | `c1ccc(CN2CCc3ncnc(N4CCCC4)c3CC2)nc1` | -33.6 | 8.602 | 19.3 |
| 67 | `CC1CN(c2ccc(CNC(=O)NCc3ccoc3)cn2)CCO1` (configuration not stated) | -14.21 | -1.01 | 15.87 |
| 68 | `COc1ncc(NC(=O)c2ccco2)c(OC)n1` | 4.34 | 0 | -6.957 |
| 69 | `Cc1cn2c(n1)CCC(NC(=O)c1ccc(S(C)(=O)=O)o1)C2` (configuration not stated) | -8.301 | -1.183 | -1.786 |
| 70 | `CCOCC(=O)N1Cc2cnc(-c3ccccc3)nc2C1` | -12.01 | -0.5291 | 14.71 |
| 71 | `c1ccc(CCCN2CC(n3cccn3)C2)cc1` | -25.16 | -0.3831 | 27.69 |

9 of the entries, repeated:

| structure | Pks13 thioesterase | TcHisRS | LiHisRS |
|---|---|---|---|
| `N#Cc1cccc(C(=O)N2CCC3(CCC(=O)N(C4CC4)C3)CC2)c1` | 3.814 | -2.762 | 14.58 |
| `CCn1c(C2CCCN(Cc3ccc(OC)c(C)c3C)C2)nn(C)c1=O` (configuration not stated) | -37.82 | -3.488 | 11.48 |
| `Cc1cc(=O)[nH]c(NCCNC(=O)CN2CCCCCC2)n1` | 15.88 | 5.419 | 9.211 |
| `CCCC(O)CN1CCC(=O)N(CC)Cc2cc3c(cc21)OCO3` (configuration not stated) | -18.12 | 6.742 | 16.33 |
| `Cc1ccc(NS(=O)(=O)c2c[nH]c3ncccc23)nc1` | -17.9 | 7.447 | 19.4 |
| `Cc1cnc(-c2nc(O)c3c(n2)CN(C(=O)C2CCCC2)CC3)cn1` | -3.66 | 1.88 | 5.674 |
| `NC(=O)CN1CCCC(c2nccnc2Oc2cccc(F)c2)C1` (configuration not stated) | -2.581 | 5.993 | 4 |
| `Cc1c(Cl)cccc1N1CC(c2nnc(N)s2)CC1=O` (configuration not stated) | 3.409 | 2.232 | 16.05 |
| `CN(Cc1cn2c(n1)CN(CC1CC1)CC2)Cc1ccco1` | -12.2 | 7.104 | 8.029 |